Patent US7238668B1, “Inhibition of lymphocyte adherence with CS-1-peptides and fragments thereof” (Fred Hutchinson Cancer Research Center, priority 1989, dated 2007)

Target: integrin receptor α4β1 (human)
Experiment: peptide inhibition of lymphocyte adhesion to fibronectin (column Inhibition)

binding: binds
Binder: LHGPEILDVPST (also called CS-1-B12) [B12 peptide]

B1: CS-1 peptide (peptide)
peptide: DELPQLVTLPHPNLHGPEILDVPST
notes: Free peptide; also called peptide 344; synthetic CS-1
binding: binds

binding: binds
Binder: GPEILDVPST (also called peptide 354) [GPEILDVPST peptide]

No constants are given. Whether binding was seen depends on the method and setting. A result given as binding can be weak or reduced; the word gives no strength. Each block holds one binder with its values, some of them ahead of it.
